PubChem BioAssay AID1259307 – Sanger Institute, 2017
The whole screen tested 794 reagents; below is a random part of them. Over the whole deposit, 15 (1.9%) got an active call. 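Calls reflect lethality without any drug; synergy scores did not enter the calls.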 Not all columns of the deposit are shown. Reagent sequences are not shown. Not stated in the record: the amount of reagent, the time to read-out.

Test: 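Identify kinases needed for SW620 growth or enhancing BYL719, cetuximab or trametinib effects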 (primary screen)
Cells: SW620 colorectal cancer cells
Reagents: siRNA pool against human genes
Challenge: anchor drugs BYL719 at 1 µM, cetuximab at 5 µg/ml or trametinib at 10 nM, each beside a DMSO vehicle arm
Measurement: 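Cell viability in each well relative to non-targeting controls, averaged over replicates and turned into a robust z-score; synergy with BYL719 (1 µM), cetuximab (5 µg/ml), trametinib (10 nM) versus DMSO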
Scale: viability robust z-score, no drug: higher = more viable cells
Call rule: 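Essential when the viability robust z-score without drug is under -3; synergy scores are ignored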
Calls: active = essential (lethal alone); inactive = no change alone

no.	target	viability robust z-score, no drug	Call
1	SPHK2 (sphingosine kinase 2)	0.736	inactive
2	HIPK3 (homeodomain interacting protein kinase 3)	-0.25	inactive
3	TNNI3K (TNNI3 interacting kinase)	-1.18	inactive
4	PRKX (protein kinase cAMP-dependent X-linked catalytic subunit)	0.715	inactive
5	PBK (PDZ binding kinase)	0.647	inactive
6	BRD3 (bromodomain containing 3)	-0.899	inactive
7	MAP2K2 (mitogen-activated protein kinase kinase 2)	0.248	inactive
8	PKM (pyruvate kinase M1/2)	0.736	inactive
9	TTK (TTK protein kinase)	0.508	inactive
10	MAK (male germ cell associated kinase)	-0.911	inactive
11	CDKL3 (cyclin dependent kinase like 3)	0.243	inactive
12	TRIM27 (tripartite motif containing 27)	-1.51	inactive
13	MARK3 (microtubule affinity regulating kinase 3)	0.307	inactive
14	PRKD1 (protein kinase D1)	-0.0798	inactive
15	MAP3K8 (mitogen-activated protein kinase kinase kinase 8)	-0.0228	inactive
16	SRC (SRC proto-oncogene, non-receptor tyrosine kinase)	0.265	inactive
17	RIPK4 (receptor interacting serine/threonine kinase 4)	0.0973	inactive
18	OXSR1 (oxidative stress responsive kinase 1)	0.736	inactive
19	DYRK2 (dual specificity tyrosine phosphorylation regulated kinase 2)	0.488	inactive
20	NR2F2 (nuclear receptor subfamily 2 group F member 2)	0.0948	inactive

2 of these entries, reformatted:
{"target":"TTK (TTK protein kinase)","viability robust z-score, no drug":0.508,"Call":"inactive"}
{"target":"MAK (male germ cell associated kinase)","viability robust z-score, no drug":-0.911,"Call":"inactive"}
